Measurements reported in PubChem BioAssay AID662 (National Center for Advancing Translational Sciences (NCATS), 2007).
This is one part of the list. These are further read-outs of the screen, such as a control signal, another cell line or another target. No call is given for them. Compounds called inactive in the main read-out are mostly missing here. Words in brackets tell the shape of the fitted curve; partial curves, single points and poor fits give uncertain potencies.

Assay: Cell signaling CRE-BLA (Fsk stim)
Conditions: CHO CRE-bla reporter (cAMP response element driving beta-lactamase), forskolin EC10, beta-lactamase ratio; measured here: 460 nm blue channel
Outline: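 CHO CRE-bla cells, overnight plating in Opti-MEM with 0.5% dialyzed FBS; cpd titration + EC10 NKH 477, 3 h 37 °C; CCF4 2 h RT; ex 405/em 460 vs 530 ratio → %Activity, AC50.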

SMILES | AC50
CN(C)CCCn1c(N)c(C#N)c2nc(C#N)c(C#N)nc21 | 12.6 µM [rising, single point]
O=C(Nc1ccccc1)[C@@]12C[C@@H]1/C(=N/O)c1ccccc1O2 | 31.6 µM [falling, single point]
COCCOC(=O)C1=C(C)NC2=C(C(=O)CC(C)(C)C2)C1c1cccnc1 (stereo not drawn) | 12.6 µM [rising, single point]
CCN1C(=O)C(NC(C)=O)c2cc(OC)ccc21 (stereo not drawn) | 3.98 µM [rising, single point]
CCCc1cc(=O)[nH]c(SCC(=O)N(C)Cc2ccccc2)n1 | 3.98 µM [falling, partial curve]
Cc1oc(/N=C/c2cccc3ccccc23)c(C#N)c1C | 0.00398 µM [falling, full curve, poor fit]
Cn1c(=O)c2c(ncn2CC(=O)Nc2nc(-c3ccccc3Cl)cs2)n(C)c1=O | 0.00316 µM [falling, full curve, poor fit]
O=C1c2ccccc2C(=O)N1CCCc1nc2ccccc2c(=O)n1CCCn1ccnc1 | 10 µM [rising, partial curve]
CCN(CCNC(=O)C1CCN(Cc2nc(-c3cccc(Cl)c3)oc2C)CC1)c1ccccc1 | 0.02 µM [falling, full curve]
COc1ccccc1N1CCN(CCCCNC(=O)c2ccc(-c3ccc(C(C)=O)cc3)cc2)CC1 | 12.6 µM [rising, single point]
O=C(CSc1ncccc1-c1nc2ccccc2[nH]1)N1CCCCC1 | 10 µM [rising, single point]
Cc1noc(C)c1CSCC(=O)OCc1nc2ccccc2c(=O)n1CC#N | 12.6 µM [rising, single point]
CC1(C)Oc2ccc3ccc(=O)oc3c2-c2cnoc21 | 25.1 µM [rising, single point]
CC(=O)N1CCN(c2ccc(NCc3ccc4c(c3)OCO4)cc2)CC1 | 25.1 µM [rising, single point]
Cn1c(=O)c2c(nc(N3CCCCC3)n2CCSc2nc3ccccc3o2)n(C)c1=O | 0.0794 µM [rising, single point]
CCN(CC)CCNC(=O)c1cc2c(=O)n(C)c3ccccc3c2n1C | 12.6 µM [rising, partial curve]
COc1ccc(-c2nc(-c3ccc(Br)o3)no2)cc1OC | 10 µM [rising, partial curve]
O=C(CSCc1ccco1)c1cccs1 | 3.16 µM [rising, single point]
CC(C)C12CN3CC(C(C)C)(CN(C1)C3c1ccccc1O)C2=O (stereo not drawn) | 0.631 µM [rising, full curve, poor fit]
Cn1c(C(=O)NCc2ccccn2)cc2c(=O)n(C)c3ccccc3c21 | 3.16 µM [rising, full curve]
Cc1noc(C)c1COC(=O)COc1cccc2c1OC(C)(C)C2 | 2.51 µM [falling, partial curve]
CCNc1ncc2nc(-c3ccccc3)c(=O)n(CCC#N)c2n1 | 12.6 µM [rising, partial curve]
Cc1cc2n(n1)SC(Nc1ccccc1)N2 (stereo not drawn) | 3.98 µM [falling, partial curve]

SMILES | AC50
O=C(CCCCn1c(=O)c2ccccc2n(Cc2ccc(Cl)cc2)c1=O)NCc1ccco1 | 3.98 µM [rising, full curve, poor fit]
O=C1NCCCC1C(=O)NCCNC(=O)C(F)(F)F (stereo not drawn) | 0.2 µM [rising, partial curve]
CCCCOCCCNC(=O)COc1ccccc1 | 0.794 µM [falling, full curve, poor fit]
CCCCCCCCC(=O)NCc1cc(OC)c(O)cc1I | 15.8 µM [falling, partial curve, poor fit]
COc1ccc(OC)c(/C=N/c2oc(-c3ccco3)c(-c3ccco3)c2C#N)c1 | 10 µM [rising, partial curve]
COc1ccc(C(=O)NCc2cccnc2)cc1OC | 12.6 µM [rising, partial curve]
CCOC(=O)c1c(C)n(C)c2ccc(O)c(CN(C)C)c12 | 25.1 µM [rising, single point]
O=C(CSc1nc2ccccc2o1)Nc1ccccc1N1CCCCCC1 | 1 µM [rising, full curve, poor fit]
C=CCNC(=O)NC(=O)COC(=O)COc1ccc(Br)cc1F | 3.98 µM [falling, single point]
Cc1oc2c(CN(C)C)c(O)ccc2c(=O)c1-c1cscn1 | 5.01 µM [falling, single point]
COc1cc(NS(=O)(=O)c2cc(C)ccc2OC)c(OC)cc1Cl | 25.1 µM [rising, single point]
CCc1ccc(-c2nc(CN3CCC(C(=O)N4CCN(c5ccccn5)CC4)CC3)c(C)o2)cc1 | 0.316 µM [falling, single point]
COC(=O)C1=C(C)NC(C)=C([N+](=O)[O-])[C@H]1c1ccccc1C(F)(F)F | 31.6 µM [falling, single point]
CCN1CCN(C(=O)c2cc3c(=O)oc4ccc(C)cc4c3s2)CC1 | 2.51 µM [rising, full curve]
CCOC(=O)c1sc2ccc(S(=O)(=O)N3CCCCC3)cc2c1N | 25.1 µM [rising, single point]
COc1ccc(CNC(=O)C2CC(c3cccc(OC)c3)=NO2)cc1 (stereo not drawn) | 12.6 µM [rising, partial curve]
CCN(CC)c1nc(Nc2ccccc2)nc(Oc2ccc(=O)[nH]n2)n1 | 10 µM [rising, partial curve]
Cc1nc(N2CCN(Cc3ccccc3)CC2)nc2c1C(=O)CC(c1ccco1)C2 (stereo not drawn) | 5.01 µM [rising, partial curve]
CCNc1nc(NC(C)C)nc(N(C#N)CCOc2ccc(Cl)cc2Cl)n1 | 25.1 µM [falling, single point]
COCc1cc(C)nc2sc(C(=O)N3CCN(c4ccccc4)CC3)c(N)c12 | 12.6 µM [rising, partial curve]
O=C(Cn1c(-c2ccccn2)nc2ccccc21)NCCN1CCOCC1 | 5.01 µM [falling, single point]
Cc1ccc(CNC(=O)CN(C)S(=O)(=O)c2cccc3nsnc23)cc1 | 25.1 µM [rising, single point]
Cc1nc(NCc2ccccc2)c2nc(-c3ccccc3)n(CCN3CCOCC3)c2n1 | 15.8 µM [rising, partial curve]

SMILES | AC50
O=C(NCc1ccco1)c1ccc2c(c1)C(=O)c1ccccc1-2 | 7.94 µM [rising, partial curve]
COc1ccc(CN(Cc2cc3cc4c(cc3[nH]c2=O)OCO4)C(=O)NC2CCCCC2)cc1 | 10 µM [rising, partial curve]
O=c1[nH]c2c(c3c1CCCC3)CCCC2 | 0.00398 µM [falling, full curve, poor fit]
N#Cc1c2n(c3c(-c4ccccc4)ncnc13)CCC2 | 10 µM [rising, single point]
CSc1nsc(SC)c1NC(=O)OCC1CCCO1 (stereo not drawn) | 0.00398 µM [falling, full curve, poor fit]
CCCNC(=O)c1c(N)n(-c2ccc3c(c2)OCO3)c2nc3ccccc3nc12 | 0.794 µM [rising, full curve]
O=C(COc1ncnc2ccccc12)N1CCN(S(=O)(=O)c2ccc(Cl)cc2)CC1 | 5.01 µM [falling, single point]
CN(C)c1ncc2nc(-c3cccs3)c(=O)n(CCC#N)c2n1 | 15.8 µM [rising, partial curve]
Cc1noc(C)c1-c1ccc2ncnc(N3CCOCC3)c2c1 | 10 µM [rising, single point]
COCc1cc(=O)n2c([nH]c3ccccc32)c1C#N | 7.94 µM [rising, partial curve]
Cc1nc2scc(-c3cccs3)c2c(=O)o1 | 5.01 µM [falling, partial curve]
C=CCn1c(C)cc(C(=O)CSc2nnc(-c3cccc(S(=O)(=O)N(CC)CC)c3)o2)c1C | 3.16 µM [rising, single point]
O=C(CSCc1c(F)cccc1Cl)NCc1ccco1 | 5.01 µM [falling, single point]
N#Cc1cccc(-c2nc3cnc(N4CCOCC4)nc3n(C[C@H]3CCCO3)c2=O)c1 | 31.6 µM [rising, partial curve, poor fit]
CCN(CCNC(=O)C1CCN(S(=O)(=O)c2cccc3cccnc23)CC1)c1ccccc1 | 10 µM [falling, partial curve]
COc1ccc(Oc2ncc3nc(C)c(=O)n(C4CC4)c3n2)cc1 | 15.8 µM [rising, partial curve]
CCOC(=O)N1CCC(NC(=O)C(C)n2c3ccccc3c3cnn(C)c(=O)c32)CC1 (stereo not drawn) | 25.1 µM [rising, single point]
COc1nc(N(c2ccccc2)c2ccccc2)nc(-n2ccnc2)n1 | 5.01 µM [rising, partial curve]
CCOC(=O)N1CCN(c2c(F)cc3[nH]c(=S)[nH]c3c2Br)CC1 | 15.8 µM [falling, single point]
COc1ccccc1N1CCN(c2cc(=O)n(-c3ccc(Br)cc3)c(=O)[nH]2)CC1 | 0.316 µM [falling, full curve]
COCCN(C(=O)Cc1cccs1)c1nnc(-c2ccncc2)s1 | 25.1 µM [falling, single point]
Cc1cn2c(nc1=O)OC1C(O)C(COC(=O)c3ccccc3)OC12 (stereo not drawn) | 3.16 µM [falling, partial curve, poor fit]

Part of the list above in order of formula weight, high to low.
SMILES | AC50
CCN1CCN(C(=O)c2cc3c(=O)oc4ccc(C)cc4c3s2)CC1 | 2.51 µM [rising, full curve]
Cc1cc2n(n1)SC(Nc1ccccc1)N2 (stereo not drawn) | 3.98 µM [falling, partial curve]
O=c1[nH]c2c(c3c1CCCC3)CCCC2 | 0.00398 µM [falling, full curve, poor fit]
